# Over roughly 33,000 sequences, “E-score (-0.5 to 0.5)” has its median near -0.016; the highest 2% begin near 0.3. The list shows a part of the results.
# Biological target: T1, Yer184c (UniProt P39961)
# T1 sequence: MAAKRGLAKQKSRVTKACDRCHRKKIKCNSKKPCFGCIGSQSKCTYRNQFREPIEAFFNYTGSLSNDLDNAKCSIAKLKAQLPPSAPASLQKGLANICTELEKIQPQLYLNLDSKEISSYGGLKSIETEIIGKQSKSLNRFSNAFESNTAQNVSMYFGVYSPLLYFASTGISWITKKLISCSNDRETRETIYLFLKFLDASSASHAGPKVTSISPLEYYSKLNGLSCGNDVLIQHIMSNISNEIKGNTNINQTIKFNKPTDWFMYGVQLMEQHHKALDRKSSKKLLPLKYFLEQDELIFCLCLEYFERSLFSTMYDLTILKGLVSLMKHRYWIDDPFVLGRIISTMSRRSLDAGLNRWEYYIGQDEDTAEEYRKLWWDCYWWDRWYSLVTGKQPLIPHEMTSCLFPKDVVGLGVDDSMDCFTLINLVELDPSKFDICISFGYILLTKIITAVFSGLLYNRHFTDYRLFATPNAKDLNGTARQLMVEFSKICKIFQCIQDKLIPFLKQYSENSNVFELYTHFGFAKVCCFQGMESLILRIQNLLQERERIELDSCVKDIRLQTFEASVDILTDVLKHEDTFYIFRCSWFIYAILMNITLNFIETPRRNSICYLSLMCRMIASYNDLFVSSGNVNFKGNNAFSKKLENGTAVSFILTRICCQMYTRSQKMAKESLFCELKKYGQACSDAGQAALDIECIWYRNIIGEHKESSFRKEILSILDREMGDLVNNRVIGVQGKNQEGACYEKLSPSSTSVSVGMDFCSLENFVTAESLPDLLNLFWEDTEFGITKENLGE
# Test: PBM E-score (8-mer binding enrichment) (E-score (-0.5 to 0.5)); higher = stronger / more preferred TF binding
# Conditions: protein concentration: 100 nM; construct: GST-full length
# Experimental: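 Universal 'all 10-mer' protein binding microarrays (Agilent AMADID 015681) probed with GST-tagged S. cerevisiae TFs (full-length or DBD) made by in vitro transcription/translation (PURExpress), about 100-200 nM. Bound TF was detected with fluorescent anti-GST. Each ungapped 8-mer (which stands for itself and its reverse complement) is scored by the PBM enrichment score (E-score), a modified Wilcoxon-Mann-Whitney statistic from -0.5 to +0.5, computed with the Universal PBM Analysis Suite. Scale: above 0.35 generally sequence-specific binding.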
row,Sequence,PBM E-score
1,ACAAGGAT,0.0231
2,GAATAATA,0.234
3,ACGGAACC,0.329
4,CTACGTAC,0.0379
5,CTGGTGAA,-0.0403
6,CATTATCG,0.0346
7,ATCGGTCA,0.0109
8,AAGGTACA,-0.102
9,AAAAGTCA,-0.0775
10,CGCTAAAG,-0.0461
11,ACTTGTGC,-0.103
12,CAAAGAGA,0.0946
13,ATAACTCC,0.0294
14,AAATCCTC,-0.0657
15,TCGTTGAA,0.0561
16,GCTGGCCC,-0.374
17,CTTTACAC,0.12
18,AGATATGC,-0.0109
19,CAGCAGAG,-0.138
20,AAGCGTCC,-0.0369
21,CTGCACCC,-0.153
22,CGAGGAAA,0.177
23,ATGACGGC,0.0199
24,CTATTTTC,0.144
25,GCGCTGAC,-0.106

row,Sequence,PBM E-score
1,CATATACA,0.175
2,ACCGAGCT,0.206
3,GGATGCCC,-0.125
4,CTAGGTAC,-0.0435
5,ATGGTCAA,0.0563
6,CGCAGACA,-0.00145
7,CATAGTGA,-0.0892
8,CATCCCAG,-0.114
9,ATATTCCA,0.16
10,CACGTATG,0.0807
11,CGGAATCA,0.306
12,GGCCTTCA,-0.0859
13,AAATGGAG,0.043
14,CGTACCGC,0.028
15,ACACGGGA,-0.00121
16,AACCGACA,0.212
17,CAATTTGG,-0.0376
18,GCTTGTCA,0.174
19,CTCCCACA,-0.184
20,AACACTTC,0.0993
21,ACCACCCT,-0.179
22,CTATGGGC,-0.148
23,ATCGGCAC,0.27
24,CCCCGCGC,-0.135
25,GCCCGGGA,0.282

row,Sequence,PBM E-score
1,ATAAATTC,0.203
2,AACAAGGT,-0.0263
3,AAGTCTAC,-0.224
4,CCGCACTC,0.0103
5,CAGGCTAC,-0.143
6,CGCATATC,0.145
7,CTGGTCAC,-0.229
8,CCACACCC,-0.124
9,CATGATCG,0.05
10,GCCCCAGA,-0.205
11,TACTCCCA,0.107
12,CGGCTAGA,0.306
13,ACCGGACA,0.122
14,AGGAGTTG,-0.00901
15,CAAAGCCC,-0.127
16,ACGTGGAC,-0.164
17,AAGCATAT,0.125
18,AACCTTCA,-0.191
19,AGCCTACC,-0.149
20,GCAATAAA,0.247
21,CGTGTCGA,-0.0581
22,AATATACG,-0.262
23,CATAACTC,0.00676
24,CAGGCAAC,-0.128
25,ATAATGTG,0.0676

row,Sequence,PBM E-score
1,CGTATAAG,-0.0423
2,ATCTGACG,-0.251
3,ACGACAGC,-0.0485
4,AATAGATT,0.151
5,CGATTAAG,0.00842
6,CACCCTAG,-0.0649
7,AATGTGGC,-0.152
8,AAGATACT,0.0505
9,ACCCTCAG,-0.189
10,GCGAGCGA,0.0129
11,ATCGCATG,-0.00236
12,CAACGAAA,0.188
13,ACGGGAGG,-0.176
14,GTTAATCA,0.234
15,ATTAGGAC,-0.0657
16,TCTTACAA,-0.0372
17,CCAAGTTC,-0.141
18,GTGTTCCA,-0.0649
19,GCCGCTCA,-0.0363
20,GTAAACTA,0.185
21,GCACCAGC,-0.192
22,CGGCCCTA,0.125
23,ATCCAGAC,0.14
24,GCACCAAA,-0.0822
25,CTTAGTAC,-0.0475

# Another view of part of the listing above.
row | Sequence | PBM E-score
24 | CCCCGCGC | -0.135
25 | GCCCGGGA | 0.282

# (next part)

row,Sequence,PBM E-score
1,AGAGGTGA,-0.148
2,AGTCAACG,-0.136
3,AGTTAATC,0.00661
4,ATGGAACG,0.00149
5,GAAAACAC,0.163
6,AGTTGCGG,0.154
7,ACGCCCTA,-0.255
8,AGCCGTGA,0.16
9,ACAGTTAA,0.125
10,GACGCAAC,0.0713
11,AAGTCCAT,-0.193
12,ACAAGGTC,-0.234
13,ATCCATCC,0.16
14,GTAAGCCA,-0.257
15,CATCATGC,-0.0578
16,AAGCGGAA,0.211
17,ATTTCTTG,0.216
18,CATTATGC,-0.0504
19,AGTGAAAC,-0.0495
20,CCCATATA,-0.0191
21,GGGACACA,0.00539
22,CCCATCCG,-0.0892
23,ATATTCTC,0.0873
24,CATATGAC,0.0268
25,GAGTTACA,0.108

# Not a retest: entries from further up.
row,Sequence,PBM E-score
2,AGTCAACG,-0.136
3,AGTTAATC,0.00661
4,ATGGAACG,0.00149
5,GAAAACAC,0.163
6,AGTTGCGG,0.154

# Later entries

row,Sequence,PBM E-score
1,GCACTTCA,0.0823
2,TCTGAAAA,0.0749
3,CATATAAA,0.0973
4,GAGCCACC,-0.152
5,ATGCAAAA,0.224
6,CATCACCG,-0.0829
7,CGGATCTC,0.147
8,CCTCGAAC,-0.114
9,CTCTCGGA,0.278
10,CGGTGAGC,-0.157
11,ATAGTGTC,0.0385
12,CGCAAGTA,0.0344
13,CCGCTCGA,-0.00989
14,AACCGAAC,0.177
15,CCTGTCTA,-0.162
16,AGTTCACG,-0.0529
17,CCTGGCGC,-0.0184
18,CCGACAAA,0.275
19,CCGAGAAG,0.193
20,CAACTCCC,0.0639
21,CGCTTCGC,-0.0541
22,AAGTTCAC,0.019
23,AACCCAAT,0.00121
24,CAACCCAC,-0.141
25,CCCTGTAC,-0.286

row,Sequence,PBM E-score
1,AATGGACA,0.134
2,TGTTATAA,0.259
3,GCGGAGAA,0.114
4,AGCTAGTG,-0.222
5,GTTAAGAA,0.0326
6,ATTCACGG,0.277
7,CCTCGTGA,-0.00103
8,ACCCCAGC,-0.113
9,CCCGACAG,-0.027
10,ATTACGAA,0.168
11,ACGCAAAC,0.0183
12,CGGCATAG,0.2
13,TATTTTAA,0.235
14,CCCATCAG,-0.304
15,AGGCCGGC,0.265
16,CCCGTTAG,-0.167
17,ATATGAAT,0.156
18,ATGAACTA,0.0664
19,GATGGTGC,-0.351
20,AGGTGCTA,-0.032
21,ATACGTGA,0.0288
22,CCCAGCCA,-0.0678

# Look-ups from the list:
# GTTAATCA | PBM E-score: 0.234
# AAGATACT | PBM E-score: 0.0505

# — the supplement of paper PMC3334620
